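Primary screen of methionyl-tRNA synthetase; the read-out is not stated. Target: Methionyl-tRNA synthetase (putative), Leishmania donovani (UniProt E9BF75). The test concentration is not given. The values are filed as inhibition. About 68,000 compounds were tested under these conditions; 0.035% (about 24) showed 50% or more at least once.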

By UniProt entry, the sequences of proteins in these tests, tags left out.
UniProt E9BF75, entry or part of it: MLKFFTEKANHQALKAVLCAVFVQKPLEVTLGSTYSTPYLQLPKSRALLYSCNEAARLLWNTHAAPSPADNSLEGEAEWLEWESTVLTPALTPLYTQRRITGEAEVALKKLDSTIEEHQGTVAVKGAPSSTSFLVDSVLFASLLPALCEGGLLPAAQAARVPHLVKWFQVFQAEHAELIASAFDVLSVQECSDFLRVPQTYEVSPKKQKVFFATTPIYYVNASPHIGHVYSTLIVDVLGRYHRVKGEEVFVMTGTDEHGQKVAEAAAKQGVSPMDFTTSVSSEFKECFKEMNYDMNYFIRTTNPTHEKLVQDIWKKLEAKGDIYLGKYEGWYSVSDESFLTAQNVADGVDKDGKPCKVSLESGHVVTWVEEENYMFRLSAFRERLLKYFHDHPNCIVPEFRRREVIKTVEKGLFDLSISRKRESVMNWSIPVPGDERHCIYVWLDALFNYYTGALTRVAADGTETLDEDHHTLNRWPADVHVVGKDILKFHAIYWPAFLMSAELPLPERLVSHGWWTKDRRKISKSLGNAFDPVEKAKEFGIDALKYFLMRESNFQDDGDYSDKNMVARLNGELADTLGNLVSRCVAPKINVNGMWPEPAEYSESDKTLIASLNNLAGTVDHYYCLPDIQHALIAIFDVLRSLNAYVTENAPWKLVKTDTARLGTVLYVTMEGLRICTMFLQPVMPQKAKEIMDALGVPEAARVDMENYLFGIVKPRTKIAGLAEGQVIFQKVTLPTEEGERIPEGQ

Results are percentages, as filed.
The record does not define 0% and 100%; most values in the screen are far below 50% and negative numbers occur (in some assays of this library far below -100).
This is an unselected part of the compounds tested.

SMILES,Inhibition
CNC(=O)c1cccnc1Oc1ccccc1,7.744%
Cc1ncc(CNC(=O)Cc2ccsc2)c(C2CCCN2C)n1 (centres undefined),17.51%
Cc1nc(C(C)N2Cc3ncccc3C2=O)cs1 (centres undefined),14.63%
CCOCCC(=O)N1CCc2cccc(S(=O)(=O)N3CCOCC3)c2C1,19.38%
CN1CCN(Cc2cn3c(n2)CN(C(=O)c2cccn2C)CC3)CC1,0.3257%
CN(c1ncccc1C#N)C1CCN(Cc2ccncc2)CC1,11.53%
Nc1nccc(N[C@H]2CN(CC(=O)NC3CCCCC3)C[C@@H]2C2CC2)n1,0.9804%
CCOc1ccc(OCC(O)CN2CCN(S(C)(=O)=O)CC2)cc1 (centres undefined),24.86%
Cn1cc(CC(=O)N2CCCC(n3cncn3)C2)cn1 (centres undefined),18.21%
CNc1cncc(C2CCCN2Cc2ccn(C)n2)n1 (centres undefined),10.59%
COCCN(C)C(=O)NCCc1coc(-c2ccc(C)cc2)n1,9.218%
CC(C)c1nc(CN2CCCN(Cc3nnc(C4CC4)o3)CC2)no1,3.497%
COc1ccnc(N2CCC3(CCCN(CC4CC4)C3=O)C2)n1 (centres undefined),14.81%
Cn1cc(CCNC(=O)N2CCCC(Cc3nccn3C)C2)cn1 (centres undefined),13.9%
Cc1nc(CN2CCC3(CCCN(Cc4ccncc4)C3)C2=O)cs1 (centres undefined),4.11%
Cc1c(-c2cccs2)nn2c(O)c3c(nc12)CN(C(=O)C1CC1)C3,16.04%
CCc1c(C)nc(C)nc1N1CCC(NCCSc2nnnn2C)CC1,22.16%
CCN(Cc1ccc(Cl)c(Cl)c1)C(=O)CCn1cncn1,15.55%
CCCN1CCC(CNC(=O)C2(c3cccc(C)c3)CC2)C1 (centres undefined),21.49%
COc1c(C(=O)NC(C)CC(=O)c2cccs2)c(C)nn1C (centres undefined),8.709%
N#Cc1ccc(OCCOc2ccccc2C(=O)N2CCOCC2)cc1,6.299%
N#CCCn1cnc2c(F)cc(Br)cc2c1=O,-12.32%
CCOc1ccc(S(=O)(=O)N(CCOC)Cc2ccoc2)cc1F,5.915%
COc1cc(OC)cc(N2CCC(NC(=O)c3ccc[nH]3)CC2)c1,14.34%
CCC(C)Oc1cc(C(=O)N(c2cccnc2)C(C)C)ccn1 (centres undefined),7.33%
CCC1CN(C(=O)c2cc(C(C)=O)c(C)[nH]c2=O)CCN1C(C)C (centres undefined),13.06%
CCSCCC(=O)NC1CCN(C(C)c2ccccc2)CC1 (centres undefined),21.98%
COc1ccc(CC(=O)N2CCCCC2Cn2cccn2)cc1OC (centres undefined),11.27%
Cn1ccnc1CN(CCO)C(=O)c1cnc2ccccc2c1,8.533%
COC(=O)CNC(=O)CC1COc2ccc(C(=O)N(C)C)cc2N1C (centres undefined),16.85%
O=C1CN(C(=O)c2cc(Cl)ccc2F)c2ccncc2N1,15.05%
COCC1N(C(=O)N2CCOCC2)[C@H]2CC[C@]1(O)CC2 (some centres undefined),10.54%
C=C(C)CN1CCCC1c1nc(Cc2ccc(F)cc2)no1 (centres undefined),2.989%
Cc1cccc(C(C)(C)CNC(=O)CN(C)S(=O)(=O)c2cccnc2)c1,7.971%
CN1CCN(c2ccc(F)cc2NC(=O)NCC[S+](C)[O-])CC1 (centres undefined),11.64%
CC(C)N1CC[C@@H]2OC[C@H](C(=O)Nc3cccnc3)C[C@@H]2C1,1.37%
Cn1c(C2CC2)nc2cc(NC(=O)C3CCOC3)ccc21 (centres undefined),19.1%
CN(C)CCN1CCC2(CCN(C(=O)c3ccncc3)CC2)C1=O,20.83%
Cc1c(C(=O)N2CCSCC2)sc2nc(C(F)(F)F)ccc12,16.03%
O=C(COCC1CC1)Nc1ncccc1O,14.63%
COC(=O)[C@@H]1Cc2ncn(C)c2CN1S(=O)(=O)c1ccc(OC)cc1,1.504%
Cc1cccc(CN2C(=O)CCC23CCN(C(=O)c2ccco2)CC3)n1,9.936%
COc1cccc(CCC2CCCN(C(=O)c3n[nH]c4c3CCC4)C2)c1 (centres undefined),29.35%
Cc1csc(CN2CC[C@H]3O[C@H](C(=O)Nc4cccnc4)CC[C@H]32)n1,20.86%
O=C(CC1CC1)N1C[C@@H]2CCN(c3cnccn3)C[C@@H]2C1,18.52%
CCC(=O)Nc1ccc2c(c1)C1(CCOCC1)CN2CCF,2.078%
CCCS(=O)(=O)N1CC[C@@H]2[C@@H]1CC(=O)N2Cc1csc(C)n1,2.454%
CC(C)c1ccc(OCCC(=O)N2CCC(C(=O)N(C)C)CC2)cc1,15.3%
Cc1oncc1C(=O)NCc1cc(=O)n2c(n1)CN(C(C)C)CCC2,3.125%
COCCN(Cc1nccs1)C(=O)c1cc(-c2ccc(C)o2)n[nH]1,-2.703%
COc1cncc(N2CCN(Cc3ccncc3Cl)CC2)n1,14.25%
COCc1ncc(CN2CC[C@@](O)(COC)C(C)(C)C2)cn1,12.13%
CNS(=O)(=O)c1ccc(CN2CCN3CCNC(=O)C3C2)cc1 (centres undefined),8.207%
Cc1nnc(N2CCc3cncnc3C2)c(C#N)c1C,4.237%
CCc1ncncc1C(=O)NCCNC(=O)c1ccc(C)c(F)c1,5.301%
COCCOCCNC(=O)N1CCN(c2ccccc2C#N)CC1,-1.099%
CCn1ccnc1CN1CCCC1Cn1cc(C)cn1 (centres undefined),23.5%
CC(C(=O)N1CCCC1)S(=O)(=O)Cc1nc(C(C)(C)C)no1 (centres undefined),12.53%
CCOCC1CN(S(=O)(=O)N(C)C)Cc2cnn(CC)c21 (centres undefined),9.774%
Cc1cc(C)c2c(NCc3nncn3C3CCCCC3)ncnc2n1,14.85%
Cc1csc2nc3n(c(=O)c12)CCN(Cc1c[nH]cn1)CC3,17.36%
Cc1ncsc1-c1nc(CC2CCN(C)CC2)nn1Cc1ccccc1,1.289%
COc1ccc(-c2cn3c(n2)CO[C@@H](CNCc2ccccn2)C3)cc1,4.407%
CN1CCC(Cc2noc(-c3cccc(OCC(N)=O)c3)n2)CC1,4.935%
CS(=O)(=O)CCCSCc1cc(F)cc(Br)c1,8.681%
COc1ccccc1-c1cc(C(=O)Nc2nc[nH]n2)[nH]n1,11.65%
COc1ccc(OC)c(Sc2ncccc2C(=O)NCCSC)c1,10.28%
O=C(NC1CCN(c2nccs2)CC1)c1cccs1,0.7194%
O=C(NCC(O)c1ccoc1)Nc1c(F)cccc1F (centres undefined),19.24%
COC[C@]1(O)CCN(C2CCN(c3ccc(OC)cc3)CC2)CC1(C)C,13.12%
COc1cccc2c1OCC(Cc1cc(C(N)=O)ccn1)C2 (centres undefined),3.715%
CC(C)NC(=O)CC1COC2(CCN(Cc3cccs3)CC2)C1 (centres undefined),13.8%
CCc1cc(O)n2nc(C3CCN(C(=O)c4ccccn4)CC3)cc2n1,14.06%
COc1ccccc1OCCCn1c(C)c(C)oc1=O,8.75%
Cc1nc(C(=O)N2CC[C@@]3(C[C@@H](NS(C)(=O)=O)CCO3)C2)cs1,-5.473%
Cc1nn(C)c(C)c1C1CCCN1C(=O)c1ccc(Cl)o1 (centres undefined),14.29%
CCCC1CCN(C(=O)c2coc(COc3ccc(OC)cc3)n2)C1 (centres undefined),18.06%
Cc1n[nH]c(C2CN(CCCOc3ccc(F)cc3)CCO2)n1 (centres undefined),10.48%
NCCn1cc(C(=O)N2CCCCCC2c2ccco2)nn1 (centres undefined),18.95%
O=C(NCC(O)c1ccccc1)Nc1cccs1 (centres undefined),0%
O=C(c1ccccc1)N1C[C@@H]2CC[C@H](C1)N(C(=O)CN1CCOCC1)C2,10.05%
O=C1NCCCCC1NC(=O)N1CCc2ccccc21 (centres undefined),7.599%
CCOCC1CN(C(=O)c2ccco2)Cc2nn(C)cc21 (centres undefined),16.3%
O=C(CN1CCOc2ccccc2C1)N1Cc2cnn(CCO)c2C1,16.84%
O=C1NCCN(CC2CC2)C12CCN(Cc1ccc3c(c1)OCO3)CC2,-6.438%
COc1ccc(-c2nc(CCNc3nnc(C)c(C)c3C#N)co2)cc1,4.897%
CCN(CC)C(=O)NC(C)c1ccc(Oc2cccnc2)c(F)c1 (centres undefined),4.974%
CCc1nc(C2CCCN2C(=O)Cc2cccs2)no1 (centres undefined),6.425%
CN(CCc1ccncc1)c1cnn(C)c(=O)c1Br,19.2%
CO[C@H]1CN(C(=O)c2ccc[nH]2)[C@@H]2COC[C@H]12,-34.52%
CN(CC(=O)NC(Cc1ccccc1)C1CCCC1)S(C)(=O)=O (centres undefined),8.239%
Oc1ccc2oc3c(c2c1CN1CCOCC1)CCCC3,11.85%

The last 5 entries again:

* CCc1nc(C2CCCN2C(=O)Cc2cccs2)no1 (centres undefined) : 6.425%
* CN(CCc1ccncc1)c1cnn(C)c(=O)c1Br : 19.2%
* CO[C@H]1CN(C(=O)c2ccc[nH]2)[C@@H]2COC[C@H]12 : -34.52%
* CN(CC(=O)NC(Cc1ccccc1)C1CCCC1)S(C)(=O)=O (centres undefined) : 8.239%
* Oc1ccc2oc3c(c2c1CN1CCOCC1)CCCC3 : 11.85%

The values are deposited in ChEMBL (CHEMBL3988442, “University of Dundee, Small-Polar-MMV Screening Library” (2021)).